Library screen at single concentrations

Chains of the proteins cited; added tags and fusions are not shown. Residues count along the entry.
UniProt Q8IDJ8, 1-583: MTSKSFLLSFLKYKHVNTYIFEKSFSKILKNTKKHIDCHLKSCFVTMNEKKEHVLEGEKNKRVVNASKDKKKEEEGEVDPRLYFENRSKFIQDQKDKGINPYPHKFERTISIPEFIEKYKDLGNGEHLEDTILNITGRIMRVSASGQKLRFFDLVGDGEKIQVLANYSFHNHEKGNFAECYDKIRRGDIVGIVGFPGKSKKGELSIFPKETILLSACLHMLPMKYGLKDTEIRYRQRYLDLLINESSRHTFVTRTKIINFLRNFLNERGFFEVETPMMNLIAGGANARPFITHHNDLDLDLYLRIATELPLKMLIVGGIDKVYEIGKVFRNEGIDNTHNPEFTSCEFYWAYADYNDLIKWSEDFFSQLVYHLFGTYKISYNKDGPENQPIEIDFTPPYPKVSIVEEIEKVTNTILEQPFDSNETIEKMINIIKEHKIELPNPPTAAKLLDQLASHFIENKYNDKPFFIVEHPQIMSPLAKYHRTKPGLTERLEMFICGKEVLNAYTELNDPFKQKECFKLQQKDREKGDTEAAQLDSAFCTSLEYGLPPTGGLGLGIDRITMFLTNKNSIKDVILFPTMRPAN

Each number is a percent effect as filed.
The record does not define 0% and 100%; most values in the screen are far below 50% and negative numbers occur (in some assays of this library far below -100).
The compounds are a random part of those screened.

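Enzyme assay of the cytosolic lysyl-tRNA synthetase in 384-well plates, read by luminescence. Target: Lysine-tRNA ligase, Plasmodium falciparum 3D7 (UniProt Q8IDJ8). Concentration: 30 µM. Higher reads as stronger inhibition, judged from the few compounds that gave an IC50. About 69,000 compounds were tested under these conditions; 0.071% (about 49) showed 50% or more at least once.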

SMILES: Cc1nn(C)c(Oc2cccnc2)c1NC(=O)C1CCCO1 (stereo not shown)
percent effect: 0.5307%

SMILES: CC(C)(C)c1n[nH]c(C2CN(C(=O)c3csnn3)CCO2)n1 (stereo not shown)
percent effect: 4.446%

SMILES: O=C(NC1CCCN(c2ccccc2Cl)C1)c1nc(=O)[nH][nH]1 (stereo not shown)
percent effect: -1.145%

SMILES: CSc1ccc(NC(=O)NCC(O)C2CC2)cc1F (stereo not shown)
percent effect: 1.743%

SMILES: O=S(=O)(NCCc1c[nH]c2ccc(F)cc12)C1CCOCC1
percent effect: -0.4192%

SMILES: Cc1nc(C2CCCN(C(=O)CN3CCCC3=O)C2)sc1C (stereo not shown)
percent effect: 9.35%

SMILES: CN(C)c1ccc(NC(=O)N2CCCCCC2c2ccncc2)cn1 (stereo not shown)
percent effect: 3.291%

SMILES: CS(=O)(=O)N[C@H]1CN(C(=O)c2cscn2)[C@@H]2CCCO[C@H]12
percent effect: 4.187%

SMILES: CN1CCN(c2ccc(Cl)cc2NC(=O)c2ccco2)CC1
percent effect: 5.651%

SMILES: CCN1CCC2(CC1)CC(NC(=O)c1c[nH]cn1)c1ccccc1O2 (stereo not shown)
percent effect: 5.527%

SMILES: COc1cc(C(=O)NCc2cc(N3CCOCC3)ncn2)ccn1
percent effect: 5.511%

SMILES: CN(C)c1cncc(C2CCN(C(=O)CO)CC2)n1
percent effect: 3.399%

SMILES: COc1ccc(S(=O)(=O)NCc2cccnc2N(C)C)cc1
percent effect: 1.447%

SMILES: O=C(c1cnccn1)N1CCN2C[C@H](Oc3cccnc3)C[C@H]2C1
percent effect: 9.478%

SMILES: CCN(Cc1cc(Cl)c(O)c(OC)c1)Cc1nc(COC)no1
percent effect: 5.92%

SMILES: CCc1ccc(S(=O)(=O)NCC2CCN(c3cnccn3)CC2)s1
percent effect: -1.739%

SMILES: Cc1nc(C)n(CC2CN(Cc3cc(C#N)ccc3F)CCO2)n1 (stereo not shown)
percent effect: 0.07428%

SMILES: O=C(NCC(O)COc1ccc(F)cc1)C1(c2ccc(F)cc2)CC1 (stereo not shown)
percent effect: -0.5503%

SMILES: Cn1cnc2c1C(COCC1CC1)CN(c1ncccn1)C2 (stereo not shown)
percent effect: 0.2084%

SMILES: Cc1nn(-c2ccccc2)cc1C(=O)N1CCCC1c1cnn(C)c1 (stereo not shown)
percent effect: -0.1158%

SMILES: O=C(NC1CC1)C1=CC2(CCN(CCO)CC2)c2ccccc21
percent effect: 5.978%

SMILES: O=C(CN1CCCc2sccc2C1=O)NC1CCc2nccn2C1 (stereo not shown)
percent effect: 4.162%

SMILES: COC(=O)c1ccc(N2CCN(C(=O)c3ccc(=O)n(C)c3)CC2)cc1
percent effect: 4.282%

SMILES: Cc1cc(CN2CCN(C(=O)NC(C)Cn3ccnc3)CC2)on1 (stereo not shown)
percent effect: -0.1759%

SMILES: c1cncc(CNc2cccc(OCCN3CCCCC3)c2)c1
percent effect: -2.816%

SMILES: Cn1cc(C(=O)N2CC[C@@H]3[C@@H]2CCN3Cc2cccnc2)cn1
percent effect: 5.88%

SMILES: O=C(Nc1cccn(CC(F)(F)F)c1=O)c1ccc(F)cc1
percent effect: -6.134%

SMILES: CC(NC(=O)c1cccs1)C(=O)NS(=O)(=O)c1cccc(C#N)c1 (stereo not shown)
percent effect: 2.765%

SMILES: CN1CCN(CC(CC(=O)Nc2ccc(Cl)cc2)C(=O)O)CC1 (stereo not shown)
percent effect: 1.934%

SMILES: CC(NC(=O)Cc1ccccc1F)(C(N)=O)c1cccc(Cl)c1 (stereo not shown)
percent effect: 2.645%

SMILES: CC(C(=O)NC1CC1)N1CCN(Cc2ccn(C)c(=O)c2)CC1 (stereo not shown)
percent effect: 0.2343%

SMILES: c1ccc(CNc2ccccc2N2CCCC2)nc1
percent effect: 0.02376%

SMILES: CCN(CC)C(=O)CN(C)CCn1nc2ccccn2c1=O
percent effect: -0.2868%

SMILES: Cc1nc2cc(C(=O)N3CCn4c(nnc4C4CC4)C3)ccc2s1
percent effect: 0.6712%

SMILES: O=C(Nc1ccccc1)c1ccc(NCc2ccncc2)nn1
percent effect: 6.918%

SMILES: CC(C)N1CCC(N2CCCC(C(=O)NCC3(O)CCCCC3)C2)CC1 (stereo not shown)
percent effect: -1.007%

SMILES: COc1ccc(Cn2cc(C(=O)N(C)Cc3ccn[nH]3)nn2)cc1
percent effect: 4.013%

SMILES: CN1CCCCC1c1cncc(Cl)n1 (stereo not shown)
percent effect: 1.48%

SMILES: O=S(=O)(Cc1cccc2cccnc12)NC(CO)c1ccco1 (stereo not shown)
percent effect: 2.104%

SMILES: Cc1csc(N2CCN(CC(=O)NCc3ccccn3)CC2C)n1 (stereo not shown)
percent effect: 0.1504%

SMILES: COCCCNC(=O)CN(C)C(=O)c1ccc(OC)cc1O
percent effect: 1.955%

SMILES: Cc1ccccc1C(C(=O)NCCN1CCC(CO)CC1)N(C)C (stereo not shown)
percent effect: 3.399%

SMILES: Cc1csc(CNC(=O)NCC(O)c2ccc(F)c(F)c2)n1 (stereo not shown)
percent effect: 3.078%

SMILES: O=C(c1cccnc1)N1CCCC1C1CCN(Cc2ccccc2)CC1 (stereo not shown)
percent effect: 1.818%

SMILES: Cc1cccc(NC(=O)NC2CCC3(C2)OCCO3)c1Cl (stereo not shown)
percent effect: 0.834%

SMILES: O[C@@H]1CN(Cc2cccnc2)C[C@H]1Oc1ccccc1
percent effect: 2.42%

SMILES: CCc1nnc(CN2CCCC(c3cc(C(N)=O)[nH]n3)C2)o1 (stereo not shown)
percent effect: 0.7967%

SMILES: CN(C)Cc1cc(=O)n2c(n1)CN(Cc1ccco1)CCC2
percent effect: 7.051%

SMILES: O=C(COc1ccc(Br)cc1F)Nc1cn[nH]c1
percent effect: -4.521%

SMILES: O=C(c1ccc[nH]1)N1CCn2cc(Cn3cccn3)nc2C1
percent effect: 1.187%

SMILES: N#Cc1cccc(OCc2ccoc2C(=O)N2CCCCC2)c1
percent effect: 3.215%

SMILES: CCC(C)C(=O)NCc1cccc(OCCN(C)C2CCOCC2)c1 (stereo not shown)
percent effect: 3.177%

SMILES: CSCC(CCO)NC(=O)Nc1ccc(C)cc1Br (stereo not shown)
percent effect: 2.201%

SMILES: Cc1ccc(CN2CCC3(CC2)C(=O)N(CCO)CCN3C)o1
percent effect: 4.749%

Measurements from “University of Dundee, Small-Polar-MMV Screening Library” (2021), ChEMBL document CHEMBL3988442.